Counter-ions that a name gives are not always drawn. At least one compound was matched to its structure with a doubt left.
Test system: Male Balb-c mice
Assay: Hot plate test, latency of the nociceptive reaction to heat
Type: in vivo
Settings: oral administration of 0.2 mg; 3, 4 and 5 hours following administration; vs untreated control mice; FIG. 6

CCCC(CCC)C(=O)OCOC(=O)CCCN [AN-216, 2-Propyl-pentanoic acid (valproic acid) 4-aminobutyryloxymethyl ester hydrochloride]
latency in response to heat sensation: significant latency in response to heat sensation compared to the untreated control mice
